Paper PMC4786644
No constants are given. Whether binding was seen depends on the method and setting. Binding seen in cells or lysates may run through a third protein. Some binding calls cover weakened binding; strength is not graded here.

Sequences of proteins named here, by UniProt entry; tags and fusion partners are left off.
UniProt P14618: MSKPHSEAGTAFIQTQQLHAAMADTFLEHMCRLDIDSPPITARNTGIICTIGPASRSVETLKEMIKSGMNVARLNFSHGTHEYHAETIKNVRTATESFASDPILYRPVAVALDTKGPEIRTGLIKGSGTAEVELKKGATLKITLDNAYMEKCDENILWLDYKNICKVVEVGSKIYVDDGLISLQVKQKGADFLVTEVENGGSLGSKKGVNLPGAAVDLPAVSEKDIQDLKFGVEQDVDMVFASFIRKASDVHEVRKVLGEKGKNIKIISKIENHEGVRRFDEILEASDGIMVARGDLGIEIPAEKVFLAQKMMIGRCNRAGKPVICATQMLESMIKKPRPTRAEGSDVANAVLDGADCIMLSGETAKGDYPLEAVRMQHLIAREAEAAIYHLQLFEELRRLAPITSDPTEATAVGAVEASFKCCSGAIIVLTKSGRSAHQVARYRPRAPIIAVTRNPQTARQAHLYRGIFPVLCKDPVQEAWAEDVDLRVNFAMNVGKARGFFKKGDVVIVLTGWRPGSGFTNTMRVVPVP
UniProt P09429: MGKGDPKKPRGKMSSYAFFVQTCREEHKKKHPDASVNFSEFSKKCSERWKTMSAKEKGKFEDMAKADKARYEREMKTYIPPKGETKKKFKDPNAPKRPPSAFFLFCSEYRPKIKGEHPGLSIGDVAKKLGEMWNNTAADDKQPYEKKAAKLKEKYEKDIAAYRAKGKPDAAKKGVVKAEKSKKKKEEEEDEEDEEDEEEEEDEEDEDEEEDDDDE

Molecular target: PKM2 (pyruvate kinase isoform M2), endogenous in treated cells (human (endogenous in human colorectal cancer cell lines)) (UniProt P14618)
Experiment: co-IP; cells treated with 125I-HMGB1 (80 nM, 24 h) with or without P-M2tide (10 uM, 24 h) or ML-265 (100 uM, 24 h); PKM2 immunoprecipitated; radioactivity measured in a liquid scintillation counter; only the binder purified

125I-labelled HMGB1 (from UniProt P09429 1-215)
binding: binds
